Data reported in patent US20230127263A1.
No constants are given. Whether binding was seen depends on the method and setting. Some binding calls cover weakened binding; strength is not graded here.

Sequences of proteins named here, by UniProt entry; tags and fusion partners are left off. A change or cut given only in a name is not applied to a line headed by its entry. Residues count along the entry.
UniProt Q9NPF7: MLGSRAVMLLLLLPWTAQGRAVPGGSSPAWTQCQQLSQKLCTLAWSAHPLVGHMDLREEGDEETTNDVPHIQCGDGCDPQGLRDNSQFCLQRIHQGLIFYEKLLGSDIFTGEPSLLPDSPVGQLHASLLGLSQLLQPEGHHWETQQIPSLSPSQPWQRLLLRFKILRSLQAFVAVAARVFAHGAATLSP
UniProt P29460: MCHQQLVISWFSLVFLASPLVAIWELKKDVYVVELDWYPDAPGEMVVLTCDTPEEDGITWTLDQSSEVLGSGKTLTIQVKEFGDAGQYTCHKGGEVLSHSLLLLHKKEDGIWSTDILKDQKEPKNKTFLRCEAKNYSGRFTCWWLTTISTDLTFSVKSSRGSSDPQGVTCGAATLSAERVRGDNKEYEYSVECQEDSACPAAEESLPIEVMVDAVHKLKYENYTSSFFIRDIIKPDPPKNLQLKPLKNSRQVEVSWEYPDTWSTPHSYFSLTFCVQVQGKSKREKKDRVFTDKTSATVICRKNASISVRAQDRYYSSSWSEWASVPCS
UniProt Q5VWK5, residues 24-353: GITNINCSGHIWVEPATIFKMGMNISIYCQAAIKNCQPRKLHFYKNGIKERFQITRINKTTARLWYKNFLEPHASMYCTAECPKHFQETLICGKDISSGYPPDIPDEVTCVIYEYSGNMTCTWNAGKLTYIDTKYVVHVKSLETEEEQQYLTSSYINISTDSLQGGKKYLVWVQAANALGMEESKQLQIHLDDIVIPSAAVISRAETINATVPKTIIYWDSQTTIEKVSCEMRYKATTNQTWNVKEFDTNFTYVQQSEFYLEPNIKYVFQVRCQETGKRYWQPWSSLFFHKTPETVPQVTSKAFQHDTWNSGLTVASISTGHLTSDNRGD

Experiments:
[1] = target: T1, IL23 produced by p40-Td cells (human T cells transduced with human IL12B p40) (human) (UniProt Q9NPF7+P29460); experiment: sequestration of IL23 from p40-Td supernatant, read by IL17 release of murine splenocytes (FIG. 10)
[2] = target: T1, IL23 produced by p40-Td cells (human T cells transduced with human IL12B p40) (human); experiment: sequestration of IL23 by soluble receptor (told again in the discussion)

- binding [1]: binds
- binding [2]: binds
Substance: soluble recombinant human IL23R (rhIL23R) (from UniProt Q5VWK5 24-353) (receptor)
